Test results taken from the supplement of paper PMC12823440, “Inhibitors supercharge kinase turnover through native proteolytic circuits” (Nature, 2025).
Some of the results follow. The calls rarely recur for the same compound in another form.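 In K562 cells expressing nanoluciferase-fused kinases, luminescence was recorded at 4 h intervals between 2 and 18 h, normalized as percent of control with DMSO at 100% and a positive control at 0%. A significant (2 sigma) signal drop marks a time point as decreased. The authors' rule for a hit is not shown and takes in more than the number of time points.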

Chains of the proteins cited; added tags and fusions are not shown. Lines headed by an entry give the natural chain unless they say otherwise; changes in a name come on top.
UniProt P28482, whole entry: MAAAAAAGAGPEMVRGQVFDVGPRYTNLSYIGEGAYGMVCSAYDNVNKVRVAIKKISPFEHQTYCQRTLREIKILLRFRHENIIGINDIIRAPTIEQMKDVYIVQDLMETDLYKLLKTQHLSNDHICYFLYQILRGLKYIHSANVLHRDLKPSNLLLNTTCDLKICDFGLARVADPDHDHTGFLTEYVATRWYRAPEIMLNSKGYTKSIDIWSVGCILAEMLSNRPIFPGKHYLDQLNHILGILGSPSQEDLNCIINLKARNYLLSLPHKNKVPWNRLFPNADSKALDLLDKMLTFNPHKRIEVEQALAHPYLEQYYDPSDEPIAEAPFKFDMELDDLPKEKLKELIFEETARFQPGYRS
UniProt P31152, whole entry: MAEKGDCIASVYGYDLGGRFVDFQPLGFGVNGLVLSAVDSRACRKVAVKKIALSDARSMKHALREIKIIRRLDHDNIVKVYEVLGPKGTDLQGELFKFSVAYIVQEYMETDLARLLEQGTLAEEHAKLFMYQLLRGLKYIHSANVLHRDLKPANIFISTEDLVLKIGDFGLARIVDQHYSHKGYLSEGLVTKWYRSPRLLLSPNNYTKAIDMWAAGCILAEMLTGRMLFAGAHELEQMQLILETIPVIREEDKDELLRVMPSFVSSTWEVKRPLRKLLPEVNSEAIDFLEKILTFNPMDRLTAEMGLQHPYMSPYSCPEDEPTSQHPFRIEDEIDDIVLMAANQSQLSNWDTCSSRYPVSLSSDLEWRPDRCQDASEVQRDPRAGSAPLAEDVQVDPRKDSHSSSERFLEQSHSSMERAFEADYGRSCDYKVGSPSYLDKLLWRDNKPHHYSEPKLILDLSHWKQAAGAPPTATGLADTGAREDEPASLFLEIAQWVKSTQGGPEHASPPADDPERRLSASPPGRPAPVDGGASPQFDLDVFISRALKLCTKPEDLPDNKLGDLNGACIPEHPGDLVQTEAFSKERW
UniProt P49137, whole entry, looked up: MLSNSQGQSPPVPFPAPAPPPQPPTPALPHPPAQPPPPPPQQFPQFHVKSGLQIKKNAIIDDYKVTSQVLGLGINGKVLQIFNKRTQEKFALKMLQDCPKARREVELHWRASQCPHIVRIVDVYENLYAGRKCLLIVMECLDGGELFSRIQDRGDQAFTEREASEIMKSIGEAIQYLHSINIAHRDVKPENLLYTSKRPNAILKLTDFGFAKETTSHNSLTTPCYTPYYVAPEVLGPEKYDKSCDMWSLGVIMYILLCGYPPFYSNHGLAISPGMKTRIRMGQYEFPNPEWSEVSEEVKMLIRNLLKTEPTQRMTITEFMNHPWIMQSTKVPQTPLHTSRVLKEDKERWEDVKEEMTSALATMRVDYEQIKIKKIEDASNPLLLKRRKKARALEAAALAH
UniProt Q9BUB5: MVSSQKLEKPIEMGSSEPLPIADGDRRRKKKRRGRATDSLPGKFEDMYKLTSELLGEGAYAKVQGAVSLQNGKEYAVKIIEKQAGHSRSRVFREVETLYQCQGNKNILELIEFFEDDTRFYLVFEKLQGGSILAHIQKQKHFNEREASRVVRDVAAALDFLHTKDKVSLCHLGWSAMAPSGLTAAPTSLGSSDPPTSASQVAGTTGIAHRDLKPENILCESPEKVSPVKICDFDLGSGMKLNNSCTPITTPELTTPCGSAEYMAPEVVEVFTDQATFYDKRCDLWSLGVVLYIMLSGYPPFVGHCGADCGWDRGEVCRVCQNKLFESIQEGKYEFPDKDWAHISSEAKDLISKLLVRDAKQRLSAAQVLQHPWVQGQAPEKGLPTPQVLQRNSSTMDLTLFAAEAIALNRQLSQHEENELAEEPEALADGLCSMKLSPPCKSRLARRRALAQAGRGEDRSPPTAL
UniProt Q16620, whole entry, looked up: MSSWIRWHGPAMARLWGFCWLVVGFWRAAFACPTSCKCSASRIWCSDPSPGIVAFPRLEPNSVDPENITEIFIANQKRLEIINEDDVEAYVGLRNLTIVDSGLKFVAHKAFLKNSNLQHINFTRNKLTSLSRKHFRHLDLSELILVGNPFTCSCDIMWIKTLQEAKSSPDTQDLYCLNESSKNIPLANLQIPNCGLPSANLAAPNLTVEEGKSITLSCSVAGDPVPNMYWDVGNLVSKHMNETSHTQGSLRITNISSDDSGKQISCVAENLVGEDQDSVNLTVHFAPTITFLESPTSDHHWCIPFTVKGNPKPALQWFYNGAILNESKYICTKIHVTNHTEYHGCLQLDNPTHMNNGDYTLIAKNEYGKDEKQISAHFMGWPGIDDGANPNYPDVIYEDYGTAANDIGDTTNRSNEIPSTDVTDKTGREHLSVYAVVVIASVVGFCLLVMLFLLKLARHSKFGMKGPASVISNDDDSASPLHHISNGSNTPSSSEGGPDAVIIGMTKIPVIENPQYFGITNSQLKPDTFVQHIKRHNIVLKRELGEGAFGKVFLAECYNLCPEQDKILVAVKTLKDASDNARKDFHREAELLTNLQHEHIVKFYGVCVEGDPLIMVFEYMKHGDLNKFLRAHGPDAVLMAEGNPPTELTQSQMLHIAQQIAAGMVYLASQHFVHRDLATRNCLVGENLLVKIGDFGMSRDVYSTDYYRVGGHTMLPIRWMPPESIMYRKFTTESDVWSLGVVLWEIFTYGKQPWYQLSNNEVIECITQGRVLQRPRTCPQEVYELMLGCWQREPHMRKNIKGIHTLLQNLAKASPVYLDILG
UniProt Q16288, whole entry, looked up: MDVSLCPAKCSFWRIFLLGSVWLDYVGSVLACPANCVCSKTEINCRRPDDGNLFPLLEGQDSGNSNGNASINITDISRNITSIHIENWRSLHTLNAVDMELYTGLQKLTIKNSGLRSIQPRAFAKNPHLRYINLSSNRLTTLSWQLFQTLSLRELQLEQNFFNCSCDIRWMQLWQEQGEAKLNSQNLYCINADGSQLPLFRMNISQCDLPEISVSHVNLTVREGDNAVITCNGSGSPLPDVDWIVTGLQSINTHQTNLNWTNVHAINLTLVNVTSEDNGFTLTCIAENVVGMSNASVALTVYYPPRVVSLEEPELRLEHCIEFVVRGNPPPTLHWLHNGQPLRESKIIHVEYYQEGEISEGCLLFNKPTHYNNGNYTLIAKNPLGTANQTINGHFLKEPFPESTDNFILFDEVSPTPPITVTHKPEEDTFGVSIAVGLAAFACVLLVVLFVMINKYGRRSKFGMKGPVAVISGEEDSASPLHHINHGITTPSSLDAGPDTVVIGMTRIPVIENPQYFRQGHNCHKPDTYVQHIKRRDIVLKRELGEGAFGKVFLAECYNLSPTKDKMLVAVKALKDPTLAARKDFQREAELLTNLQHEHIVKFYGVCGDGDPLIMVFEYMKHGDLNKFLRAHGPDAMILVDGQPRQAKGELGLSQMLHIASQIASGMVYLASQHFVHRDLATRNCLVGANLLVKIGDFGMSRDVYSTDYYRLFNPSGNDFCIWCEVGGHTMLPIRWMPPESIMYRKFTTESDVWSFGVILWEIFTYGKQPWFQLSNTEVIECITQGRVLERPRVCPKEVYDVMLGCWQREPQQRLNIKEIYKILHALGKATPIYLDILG
UniProt O96013: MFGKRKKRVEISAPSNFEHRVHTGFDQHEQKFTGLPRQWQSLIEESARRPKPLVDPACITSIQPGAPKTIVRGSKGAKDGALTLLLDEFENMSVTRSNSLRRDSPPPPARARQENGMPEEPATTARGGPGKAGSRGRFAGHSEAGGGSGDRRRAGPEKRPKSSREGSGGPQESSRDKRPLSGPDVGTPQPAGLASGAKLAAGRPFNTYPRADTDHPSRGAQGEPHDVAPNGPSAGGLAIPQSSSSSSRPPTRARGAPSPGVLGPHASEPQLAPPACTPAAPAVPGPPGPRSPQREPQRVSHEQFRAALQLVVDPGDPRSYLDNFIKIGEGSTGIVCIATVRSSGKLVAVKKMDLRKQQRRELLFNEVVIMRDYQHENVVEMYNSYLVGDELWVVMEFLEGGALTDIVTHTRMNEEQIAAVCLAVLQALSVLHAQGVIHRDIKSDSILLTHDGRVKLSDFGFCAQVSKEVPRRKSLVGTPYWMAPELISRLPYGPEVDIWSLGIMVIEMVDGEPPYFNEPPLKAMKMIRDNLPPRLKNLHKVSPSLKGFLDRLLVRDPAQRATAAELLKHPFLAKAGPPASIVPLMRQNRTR
UniProt Q96KB5: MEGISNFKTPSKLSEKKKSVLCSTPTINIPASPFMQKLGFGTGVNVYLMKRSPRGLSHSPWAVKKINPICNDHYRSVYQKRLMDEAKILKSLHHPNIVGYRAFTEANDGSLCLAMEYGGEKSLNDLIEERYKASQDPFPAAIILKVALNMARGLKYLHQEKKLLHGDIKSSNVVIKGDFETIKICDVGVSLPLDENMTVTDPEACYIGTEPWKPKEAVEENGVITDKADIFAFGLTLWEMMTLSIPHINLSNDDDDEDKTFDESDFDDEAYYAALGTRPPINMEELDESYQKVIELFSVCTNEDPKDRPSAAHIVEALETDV
UniProt P09619, whole entry: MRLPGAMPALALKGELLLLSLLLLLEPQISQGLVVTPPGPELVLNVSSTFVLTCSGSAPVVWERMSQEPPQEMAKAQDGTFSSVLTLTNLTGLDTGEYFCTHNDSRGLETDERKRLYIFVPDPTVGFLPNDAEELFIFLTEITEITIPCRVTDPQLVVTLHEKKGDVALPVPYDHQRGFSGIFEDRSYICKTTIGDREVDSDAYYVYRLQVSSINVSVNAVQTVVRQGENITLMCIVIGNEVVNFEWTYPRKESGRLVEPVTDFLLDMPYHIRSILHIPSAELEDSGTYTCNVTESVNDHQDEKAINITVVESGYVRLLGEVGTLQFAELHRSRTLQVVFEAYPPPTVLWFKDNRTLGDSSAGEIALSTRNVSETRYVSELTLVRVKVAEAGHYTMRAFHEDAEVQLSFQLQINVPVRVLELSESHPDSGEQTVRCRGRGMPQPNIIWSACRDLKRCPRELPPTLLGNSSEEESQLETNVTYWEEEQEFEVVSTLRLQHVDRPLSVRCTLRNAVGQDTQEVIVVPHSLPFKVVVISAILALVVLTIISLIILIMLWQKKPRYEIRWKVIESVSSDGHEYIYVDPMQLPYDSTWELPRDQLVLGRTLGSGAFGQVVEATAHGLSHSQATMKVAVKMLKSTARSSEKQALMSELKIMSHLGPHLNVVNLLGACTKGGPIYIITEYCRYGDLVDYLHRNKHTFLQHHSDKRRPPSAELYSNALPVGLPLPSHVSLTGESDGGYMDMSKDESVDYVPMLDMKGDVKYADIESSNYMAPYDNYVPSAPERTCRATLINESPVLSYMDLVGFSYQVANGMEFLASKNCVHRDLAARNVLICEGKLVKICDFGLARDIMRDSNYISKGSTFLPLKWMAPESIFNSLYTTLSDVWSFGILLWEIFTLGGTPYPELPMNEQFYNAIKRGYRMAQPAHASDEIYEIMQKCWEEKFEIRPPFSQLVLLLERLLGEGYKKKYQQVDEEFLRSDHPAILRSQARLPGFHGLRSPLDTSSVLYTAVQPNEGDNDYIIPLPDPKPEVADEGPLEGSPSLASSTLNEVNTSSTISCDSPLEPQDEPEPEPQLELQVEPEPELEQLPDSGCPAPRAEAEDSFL
UniProt Q15118, whole entry, looked up: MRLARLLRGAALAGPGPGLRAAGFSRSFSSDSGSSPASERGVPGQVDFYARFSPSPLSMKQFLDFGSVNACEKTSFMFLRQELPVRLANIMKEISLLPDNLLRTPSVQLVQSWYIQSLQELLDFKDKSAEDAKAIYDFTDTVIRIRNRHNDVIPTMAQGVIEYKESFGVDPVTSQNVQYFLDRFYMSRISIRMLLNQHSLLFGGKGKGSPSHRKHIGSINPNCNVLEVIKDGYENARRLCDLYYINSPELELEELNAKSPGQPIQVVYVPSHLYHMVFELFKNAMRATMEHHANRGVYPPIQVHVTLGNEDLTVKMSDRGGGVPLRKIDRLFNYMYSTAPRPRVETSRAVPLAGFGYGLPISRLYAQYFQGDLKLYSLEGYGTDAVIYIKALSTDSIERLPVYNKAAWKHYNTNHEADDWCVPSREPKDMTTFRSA

Key:
Test in all cases: kinase-Nluc reporter destabilization hit call (1 = scored as downregulated) (binary); higher = compound decreases kinase abundance
Conditions in all cases: K562; 2-18 h
MAPK1 = MAPK1 (UniProt P28482)
MAPK4 = MAPK4 (UniProt P31152)
MAPKAPK2 = MAPKAPK2 (UniProt P49137)
MKNK1 = MKNK1 (UniProt Q9BUB5)
NTRK2 = NTRK2 (UniProt Q16620)
NTRK3 = NTRK3 (UniProt Q16288)
PAK4 = PAK4 (UniProt O96013)
PBK = PBK (UniProt Q96KB5)
PDGFRB = PDGFRB (UniProt P09619)
PDK1 = PDK1 (UniProt Q15118)

Measured: kinase-Nluc reporter destabilization hit call

C[C@@H](NC(=O)c1ncnc(N)c1Cl)c1ncc(C(=O)Nc2cc(C(F)(F)F)c(Cl)cn2)s1 (2.5 µM)
inactive: MAPK1 = 0 | MAPK4 = 0 | MAPKAPK2 = 0 | MKNK1 = 0 | NTRK2 = 0 | NTRK3 = 0 | PAK4 = 0 | PBK 0 | PDGFRB 0 | PDK1 = 0

O=C(Nc1ccnc(NC(=O)C2CC2)c1)c1c(Cl)cccc1Cl (10 µM)
inactive: MAPK1 = 0 | MAPK4 = 0 | MAPKAPK2 = 0 | MKNK1 = 0 | NTRK2 = 0 | NTRK3 = 0 | PAK4 = 0 | PBK 0 | PDGFRB 0 | PDK1 = 0

CN(C)C(=O)c1cc2cnc(Nc3ccc(N4CCN(CCCCNC(=O)COc5cccc6c5C(=O)N(C5CCC(=O)NC5=O)C6=O)CC4)cn3)nc2n1C1CCCC1 (centres undefined) (10 µM)
inactive: MAPK1 = 0 | MAPK4 = 0 | MAPKAPK2 = 0 | MKNK1 = 0 | NTRK2 = 0 | NTRK3 = 0 | PAK4 = 0 | PBK 0 | PDGFRB 0 | PDK1 = 0

CN1CCN(Cc2ccc(-c3cnc4[nH]cc(-c5ccc6[nH]ccc6c5)c4c3)cc2)CC1 (2.5 µM)
inactive: MAPK1 = 0 | MAPK4 = 0 | MAPKAPK2 = 0 | MKNK1 = 0 | NTRK2 = 0 | NTRK3 = 0 | PAK4 = 0 | PBK 0 | PDGFRB 0 | PDK1 = 0

2 consecutive records already listed:
CN(C)C(=O)c1cc2cnc(Nc3ccc(N4CCN(CCCCNC(=O)COc5cccc6c5C(=O)N(C5CCC(=O)NC5=O)C6=O)CC4)cn3)nc2n1C1CCCC1 (centres undefined) (10 µM)
inactive: MAPK1 = 0 | MAPK4 = 0 | MAPKAPK2 = 0 | MKNK1 = 0 | NTRK2 = 0 | NTRK3 = 0 | PAK4 = 0 | PBK 0 | PDGFRB 0 | PDK1 = 0

CN1CCN(Cc2ccc(-c3cnc4[nH]cc(-c5ccc6[nH]ccc6c5)c4c3)cc2)CC1 (2.5 µM)
inactive: MAPK1 = 0 | MAPK4 = 0 | MAPKAPK2 = 0 | MKNK1 = 0 | NTRK2 = 0 | NTRK3 = 0 | PAK4 = 0 | PBK 0 | PDGFRB 0 | PDK1 = 0

Further compounds follow.

O=S(=O)(c1ccc(O)cc1O)N1Cc2cc(O)cc(O)c2C1 (10 µM)
inactive: MAPK1 = 0 | MAPK4 = 0 | MAPKAPK2 = 0 | MKNK1 = 0 | NTRK2 = 0 | NTRK3 = 0 | PAK4 = 0 | PBK 0 | PDGFRB 0 | PDK1 = 0

COCCNc1cc(NC(=O)N2CCCc3cc(CN4CCOCC4=O)c(C=O)nc32)ncc1C#N (10 µM)
inactive: MAPK1 = 0 | MAPK4 = 0 | MAPKAPK2 = 0 | MKNK1 = 0 | NTRK2 = 0 | NTRK3 = 0 | PAK4 = 0 | PBK 0 | PDGFRB 0 | PDK1 = 0

CCNC(=O)Nc1ccc(-c2nc3c(c(N4CCOC[C@@H]4C)n2)CCN(C2COC2)C3)cc1 (2.5 µM)
inactive: MAPK1 = 0 | MAPK4 = 0 | MAPKAPK2 = 0 | MKNK1 = 0 | NTRK2 = 0 | NTRK3 = 0 | PAK4 = 0 | PBK 0 | PDGFRB 0 | PDK1 = 0

O=C1OC(COc2ccccc2[N+](=O)[O-])CC1Cc1ccccc1 (centres undefined) (10 µM)
inactive: MAPK1 = 0 | MAPK4 = 0 | MAPKAPK2 = 0 | MKNK1 = 0 | NTRK2 = 0 | NTRK3 = 0 | PAK4 = 0 | PBK 0 | PDGFRB 0 | PDK1 = 0

CNCc1cc(Oc2ccc3c(ccn3C(=O)Nc3cc(C(F)(F)F)n(C)n3)c2)ncn1 [Acrizanib] (10 µM)
inactive: MAPK1 = 0 | MAPK4 = 0 | MAPKAPK2 = 0 | MKNK1 = 0 | NTRK2 = 0 | NTRK3 = 0 | PAK4 = 0 | PBK 0 | PDGFRB 0 | PDK1 = 0

CC1(C)C=Cc2c(ccc(C(=O)/C=C/c3ccc(O)cc3)c2O)O1 [4-Hydroxylonchocarpin] (10 µM)
inactive: MAPK1 = 0 | MAPK4 = 0 | MAPKAPK2 = 0 | MKNK1 = 0 | NTRK2 = 0 | NTRK3 = 0 | PAK4 = 0 | PBK 0 | PDGFRB 0 | PDK1 = 0

NC(=O)c1sc2c([N+](=O)[O-])cc(C(F)(F)F)cc2[n+]1[O-] [Cyclapolin 9] (10 µM)
inactive: MAPK1 = 0 | MAPK4 = 0 | MAPKAPK2 = 0 | MKNK1 = 0 | NTRK2 = 0 | NTRK3 = 0 | PAK4 = 0 | PBK 0 | PDGFRB 0 | PDK1 = 0

COc1cc2ncnc(Nc3cc(Br)c(O)c(Br)c3)c2cc1OC (2.5 µM)
inactive: MAPK1 = 0 | MAPK4 = 0 | MAPKAPK2 = 0 | MKNK1 = 0 | NTRK2 = 0 | NTRK3 = 0 | PAK4 = 0 | PBK 0 | PDGFRB 0 | PDK1 = 0

CN1CCN(c2ccc(-c3ccncc3-c3cc(F)c(O)c(F)c3)cc2)CC1 (10 µM)
inactive: MAPK1 = 0 | MAPK4 = 0 | MAPKAPK2 = 0 | MKNK1 = 0 | NTRK2 = 0 | NTRK3 = 0 | PAK4 = 0 | PBK 0 | PDGFRB 0 | PDK1 = 0

CO[C@@H]1[C@H](N(C)C(=O)c2ccccc2)C[C@H]2O[C@]1(C)n1c3ccccc3c3c4c(c5c6ccccc6n2c5c31)C(=O)NC4 [Midostaurin] (2.5 µM)
inactive: MAPK1 = 0 | MAPK4 = 0 | MAPKAPK2 = 0 | MKNK1 = 0 | NTRK2 = 0 | PAK4 = 0 | PBK 0 | PDGFRB 0 | PDK1 = 0

COc1ccc(Br)c(C=O)c1O [6-Bromo-2-hydroxy-3-methoxybenzaldehyde] (10 µM)
inactive: MAPK1 = 0 | MAPK4 = 0 | MAPKAPK2 = 0 | MKNK1 = 0 | NTRK2 = 0 | NTRK3 = 0 | PAK4 = 0 | PBK 0 | PDGFRB 0 | PDK1 = 0

CCOC(=O)c1c(Nc2ccccc2Cl)oc(/C=C2\C=Nc3ncccc32)c1O (10 µM)
inactive: MAPK1 = 0 | MAPK4 = 0 | MAPKAPK2 = 0 | MKNK1 = 0 | NTRK2 = 0 | NTRK3 = 0 | PAK4 = 0 | PBK 0 | PDGFRB 0 | PDK1 = 0

Cc1ncc(-c2cc(F)c(O)c(F)c2)cc1-c1cc(F)c(O)c(F)c1 (10 µM)
inactive: MAPK1 = 0 | MAPK4 = 0 | MAPKAPK2 = 0 | MKNK1 = 0 | NTRK2 = 0 | NTRK3 = 0 | PAK4 = 0 | PBK 0 | PDGFRB 0 | PDK1 = 0

COc1ccc(Cl)cc1N(CC(=O)Nc1ccc2c(c1)OCO2)S(=O)(=O)c1ccccc1 (2.5 µM)
inactive: MAPK1 = 0 | MAPK4 = 0 | MAPKAPK2 = 0 | MKNK1 = 0 | NTRK2 = 0 | NTRK3 = 0 | PAK4 = 0 | PBK 0 | PDGFRB 0 | PDK1 = 0

CN(C[C@@H]1COCCO1)S(=O)(=O)Nc1ccc2ccc3ncc(-c4cnn(C)c4)cc3c(=O)c2c1 (2.5 µM)
inactive: MAPK1 = 0 | MAPK4 = 0 | MAPKAPK2 = 0 | MKNK1 = 0 | NTRK2 = 0 | NTRK3 = 0 | PAK4 = 0 | PBK 0 | PDGFRB 0 | PDK1 = 0

COc1cc2nccc(Nc3cccc(Oc4ccccc4)c3)c2cc1OC (2.5 µM)
inactive: MAPK1 = 0 | MAPK4 = 0 | MAPKAPK2 = 0 | MKNK1 = 0 | NTRK2 = 0 | NTRK3 = 0 | PAK4 = 0 | PBK 0 | PDGFRB 0 | PDK1 = 0

COc1cc(Nc2ccnc3ccc(Br)cc23)cc(OC)c1OC (2.5 µM)
inactive: MAPK1 = 0 | MAPK4 = 0 | MAPKAPK2 = 0 | MKNK1 = 0 | NTRK2 = 0 | NTRK3 = 0 | PAK4 = 0 | PBK 0 | PDGFRB 0 | PDK1 = 0

NCCNS(=O)(=O)c1ccc(Cl)c2ccncc12 [CKI-7 (free base)] (10 µM)
inactive: MAPK1 = 0 | MAPK4 = 0 | MAPKAPK2 = 0 | MKNK1 = 0 | NTRK2 = 0 | NTRK3 = 0 | PAK4 = 0 | PBK 0 | PDGFRB 0 | PDK1 = 0

COc1ccc(CN2CCC(c3ccc4nc(C(=O)N5CCN(Cc6ccc(C(F)(F)F)cc6)CC5)[nH]c4c3)CC2)cn1 (2.5 µM)
inactive: MAPK1 = 0 | MAPK4 = 0 | MAPKAPK2 = 0 | MKNK1 = 0 | NTRK2 = 0 | NTRK3 = 0 | PAK4 = 0 | PBK 0 | PDGFRB 0 | PDK1 = 0

C[C@@H]1CN(Cc2ccc(F)cc2)[C@@H](C)CN1C(=O)c1cc2c(C(=O)C(=O)N(C)C)cn(C)c2cc1Cl [Talmapimod] (10 µM)
inactive: MAPK1 = 0 | MAPK4 = 0 | MAPKAPK2 = 0 | MKNK1 = 0 | NTRK2 = 0 | NTRK3 = 0 | PAK4 = 0 | PBK 0 | PDGFRB 0 | PDK1 = 0

CC1(C)CN(C(=O)c2ccc(-c3cccc4nc(NC(=O)C5CC5)nn34)cc2)C1 [Solcitinib] (10 µM)
inactive: MAPK1 = 0 | MAPK4 = 0 | MAPKAPK2 = 0 | MKNK1 = 0 | NTRK2 = 0 | NTRK3 = 0 | PAK4 = 0 | PBK 0 | PDGFRB 0 | PDK1 = 0

Cc1ccc(Nc2cc(N[C@@H]3CCCC[C@@H]3N)nnc2C(N)=O)nc1C (2 µM)
inactive: MAPK1 = 0 | MAPK4 = 0 | MAPKAPK2 = 0 | MKNK1 = 0 | NTRK2 = 0 | NTRK3 = 0 | PAK4 = 0 | PBK 0 | PDGFRB 0 | PDK1 = 0

O=C(C#Cc1ccccc1)c1cccc([N+](=O)[O-])c1 (10 µM)
inactive: MAPK1 = 0 | MAPK4 = 0 | MAPKAPK2 = 0 | MKNK1 = 0 | NTRK2 = 0 | NTRK3 = 0 | PAK4 = 0 | PBK 0 | PDGFRB 0 | PDK1 = 0

N=C(NC(=N)N1CCCC1)Nc1ccc(OC(F)(F)F)cc1 (10 µM)
inactive: MAPK1 = 0 | MAPK4 = 0 | MAPKAPK2 = 0 | MKNK1 = 0 | NTRK2 = 0 | NTRK3 = 0 | PAK4 = 0 | PBK 0 | PDGFRB 0 | PDK1 = 0

Oc1ccc(-c2cnc3ccc(NCc4ccco4)nn23)cc1 [IRAK inhibitor 2] (2.5 µM)
inactive: MAPK1 = 0 | MAPK4 = 0 | MAPKAPK2 = 0 | MKNK1 = 0 | NTRK2 = 0 | NTRK3 = 0 | PAK4 = 0 | PBK 0 | PDGFRB 0 | PDK1 = 0
